Data on 37 compounds can be found in PubChem BioAssay AID493014 (National Center for Advancing Translational Sciences (NCATS), 2011).

This test can be described thus: qHTS Assay to Find Inhibitors of Chronic Active B-Cell Receptor Signaling. To be noted: ABC-DLBCL IkBa-CBG/CBR reporter, luminescence ratio (green luciferase fused to IkBa over red control in TMD8 lymphoma cells), 4 h. The method, boiled down: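 Cell line TMD8 (human ABC DLBCL), stably expressing tet-inducible CBG68-IkBa fusion and CBR; IMDM/0.5% FBS; cpd up to 46 uM; dox induction, 4 h, 37C/5% CO2; dual luminescence; green/red ratio; MG132 control.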
In general terms: qHTS replaces the single test concentration by a dilution series.

[1] abbreviates: measured here: CBR red luminescence, cell number.
[2] abbreviates: measured here: IkBa-CBG green luminescence.

The other results are listed elsewhere or left out. The main result of the screen is listed elsewhere. These columns were measured beside it and carry no call. Compounds called inactive in the main read-out are mostly missing here. The note in brackets gives the kind of curve behind each potency; many fits are weak.

For `CC(=O)[C@@]1(O)CC[C@H]2[C@@H]3CC=C4C[C@@H](O)CC[C@]4(C)[C@H]3CC[C@@]21C`, the AC50 under setting [1] is 0.92 µM [falling, partial curve, poor fit].
Regarding `CCN1Cc2c(/C=C/c3ccccc3)nc3ccc(OC)cc3c2N(c2cccc(Cl)c2)C1`, under setting [1], the AC50 is 22.4 µM [falling, single point].
The same measure, in the same setting: for `Cc1ccsc1C(=O)C1CCCN(Cc2cccc(OCCO)c2)C1` (stereo not given) the value was 14.1 µM [rising, partial curve]; for `Cn1c(O)c(/C=N/NC(=O)c2ccncc2)c(=O)[nH]c1=S`, 12.6 µM [falling, partial curve]; for `Nc1nonc1C(=O)N/N=C/c1ccc([N+](=O)[O-])o1`, 35.5 µM [falling, single point].
Regarding `CCOC(=O)c1[nH]c2ccc(OC)cc2c1C(SCC(=O)O)c1ccc(C(F)(F)F)cc1` (stereo not given), under setting [1], the AC50 was 20 µM [falling, single point].
On to `CC(=O)c1ccc2c(c1)C1C(Cl)C(Sc3ccccc3[N+](=O)[O-])CC1C(c1ccccc1)N2` (stereo not given), for which the AC50 under setting [1] is 20.6 µM [falling, partial curve, poor fit].
As to `CCn1c(N2CCN(CC(=O)c3c(C)n(C)c4ccccc34)CC2)nc2c1c(=O)[nH]c(=O)n2C`, under setting [1], the AC50 is 1 µM [rising, partial curve, poor fit].
On to `COP(=O)(OC)C(NC(=O)c1ccc(C)cc1)C(Cl)(Cl)Cl` (stereo not given), for which the AC50 under setting [1] is 15.8 µM [rising, single point].
Regarding `[O-]c1ccccc1-[n+]1c(-c2ccccc2)cc(-c2ccccc2)cc1-c1ccccc1`, the AC50 under setting [1] was 23.1 µM [falling, single point].
`Brc1ccc(-[n+]2c(-c3ccccc3)cc(-c3ccccc3)cc2-c2ccccc2)cc1`: the AC50 runs as follows: under setting [1], 29.1 µM [falling, single point]; under setting [2], 32.6 µM [rising, partial curve, poor fit].
`CC1=CC2/C=C(\C)CCC(O)C(O)/C=C/C(=O)C23C(=O)NC(CC(C)C)C3C1C` (stereo not given): the AC50 under setting [1] was 11.2 µM [falling, partial curve].
Same read-out and setting: to `COCCN1C(=O)NC(=O)/C(=C\c2ccc(F)cc2)C1=O` belongs 17.8 µM [rising, single point]; to `Cc1[nH][nH]c(=O)c1C(c1ccc(-c2cccc(Cl)c2)o1)c1c(C)[nH][nH]c1=O`, 35.5 µM [falling, single point]; to `CCOc1cc2c(cc1OCC)-n1cccc1C(c1ccc(OC)c(O)c1)NC2` (stereo not given), 11.2 µM [falling, single point].
On to `O=C1/C(=C/c2ccc([N+](=O)[O-])cc2)N2CCC1CC2`, for which the AC50 under setting [1] was 7.31 µM [falling, partial curve, poor fit].
For `Cc1cc(C)nc(-n2c(C)nc3cc(Cl)ccc3c2=O)c1`, the AC50 under setting [1] is 5.8 µM [rising, single point].
The same measure, in the same setting: for `CN(C)C1(CNC(=O)c2cc(S(=O)(=O)N3CCOCC3)c(Cl)cc2Cl)CCCCC1` the value was 0.731 µM [rising, partial curve, poor fit]; for `Cc1ccc(-n2c(O)c(C=NCCN3CCOCC3)c(=O)[nH]c2=O)cc1`, 25.9 µM [rising, partial curve, poor fit]; for `O=[N+]([O-])c1ccc(Cl)c([N+](=O)[O-])c1`, 20.6 µM [falling, partial curve].
As for `CCOC(=O)[C@]1(C#N)[C@@H]2C=CC(C(C)=O)=CN2[C@@H](C(N)=O)[C@@H]1c1ccsc1`, the AC50 under setting [1] is 3.26 µM [rising, partial curve, poor fit].
As for `O=C1c2ccccc2S(=O)(=O)N1CCS(=O)(=O)c1ccc(F)cc1`, the half-maximal activity concentration (AC50) under setting [1] was 10 µM [falling, partial curve].
With `C=C1CC[C@@]2(O)[C@H]3Cc4ccc(O)c5c4[C@@]2(CCN3CC2CC2)[C@H]1O5`, the AC50 under setting [1] is 6.51 µM [falling, single point].
`Cc1nc2ccccc2c(=O)n1-c1ccc(Br)cc1[N+](=O)[O-]`: the AC50 under setting [1] was 5.01 µM [falling, single point].
With `COC(=O)C1=C(c2ccc(F)cc2OCc2ccccc2)C[C@@H]2CC[C@H]1N2C(=O)NCc1ccco1`, the AC50 under setting [1] was 13 µM [falling, partial curve, poor fit].
Consider `COc1cc(/C=N/NP(=S)(c2ccccc2)c2ccccc2)ccc1O`, for which, under setting [1], the AC50 is 25.9 µM [falling, single point].
For `O=C(Nc1ccc2ccccc2c1)c1ccc(Br)o1`, the AC50 under setting [1] is 11.2 µM [falling, partial curve, poor fit].
Turning to `C[C@H]1CCC[C@@H](O)CCC/C=C/c2cc(O)cc(O)c2C(=O)O1`, the AC50 was 11.2 µM [falling, partial curve] under setting [1] and 10 µM [falling, partial curve, poor fit] under setting [2].
For `COCCOC(=O)C1=C(N)Oc2c(c(=O)oc3ccccc23)C1c1ccncc1` (stereo not given), the AC50 under setting [1] is 1.46 µM [falling, full curve].
Turning to `COC(=O)C1=C(c2ccc3ccccc3c2)C[C@@H]2CC[C@H]1N2C(=O)NCc1ccc(F)cc1`, the AC50 under setting [1] is 16.4 µM [falling, partial curve].
Take `C=CC1CN2CCC1CC2[C@@H](OC(=O)c1ccc(OC)cc1)c1ccnc2ccccc12` (stereo not given in full): under setting [1], the AC50 was 17.8 µM [falling, partial curve, poor fit].
With `Cc1cc(C)n(-c2nc(NCCCN(C)C)c3c4c(sc3n2)COC(C)(C)C4)n1`, the AC50 under setting [1] is 17.8 µM [falling, partial curve, poor fit].
In the case of `O=C(O)c1ccc(/C=C2\COc3ccccc3C2=O)cc1`, the AC50 under setting [1] was 22.4 µM [falling, single point].
For `Cc1cc(=O)oc2cc(OCC(=O)N3CCN(Cc4ccccc4)CC3)ccc12`, under setting [1], the AC50 is 29.1 µM [rising, single point].
Regarding `C[C@]12CCC3C(CCC4=C/C(=N/OCC(=O)NC(CCC(=O)O)C(=O)O)CC[C@@]43C)C1CCC2O` (stereo not given in full), under setting [1], the AC50 is 0.1 µM [rising, full curve, poor fit].
Still for that read-out and setting: for `O=C1C2CCCN2C(c2ccc(Cl)c(Cl)c2)N1c1ccccn1` (stereo not given) the value was 20.6 µM [falling, partial curve, poor fit].
Turning to `CN1CC=C2C(C#N)=C(N)C(C#N)(C#N)C(c3ccncc3)C2C1` (stereo not given), the AC50 was 0.58 µM [falling, full curve] under setting [1] and 0.92 µM [rising, full curve, poor fit] under setting [2].

As a reminder, the AC50 is the midpoint of the concentration-response curve, whichever way the signal moves.
